Values from PubChem BioAssay AID1224828 (NIAID, 2016).
The whole screen tested about 17,000 reagents; below is an unselected part. Of all reagents, 762 (4.5%) were called active. 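Active calls include both raised and lowered p65 entry, mostly lowered; wells with fewer than 50 cells lack a z-score.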 Raw values vary from plate to plate and are shown uncorrected. Unmarked entries are inactive. Reagents against one gene are numbered here.

- Aim: 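Find genes required for NF-kappaB p65 moving into the nucleus after LPS in mouse macrophages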 (primary screen)
- Cell system: mouse RAW264.7 G9 macrophage reporter cells (GFP-p65, Tnf promoter-mCherry)
- Knock-down reagent: siRNA pool against mouse genes, 100 nM
- Timing: 2 days siRNA transfection, then 40 min LPS before fixation
- Conditions: LPS (Salmonella minnesota R595) at 10 ng/ml
- Detection: 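Microscopy ratio of nuclear to perinuclear-ring GFP-p65 signal, scaled to the plate median; gene score is the average of two replicate robust z-scores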
- Direction: p65 translocation robust z-score: higher = more nuclear NF-kappaB p65 after LPS than the plate median; nuclear/cytoplasmic p65 ratio: higher = more nuclear NF-kappaB p65
- Hit rule: 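Active if robust z is above 3.3 (negative regulators) or below -1.56, the Tlr4 control median (positive regulators); activity score 50 or more; control wells not called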
- Calls: active = hit (p65 shift raised or lowered); inactive = no clear change

target | pool no. | p65 translocation robust z-score | nuclear/cytoplasmic p65 ratio, rep 1 | nuclear/cytoplasmic p65 ratio, rep 2 | low cell count flag
Plppr3 (GeneID 216152) | 1 | 0.33 | 1.66 | 1.67 | enough cells to score
Slc7a4 (GeneID 224022) | 1 | 1.72 | 1.61 | 1.46 | enough cells to score
Itprid2 (GeneID 70599) | 1 | 0.52 | 1.46 | 1.32 | enough cells to score
Rpl36 (GeneID 54217) | 1 | -0.34 | 1.38 | 1.18 | enough cells to score
Larp1b (GeneID 214048) | 1 | – | 1.29 | 1.51 | fewer than 50 cells per well; well left out of scoring
Nog (GeneID 18121) | 1 | 0.31 | 1.58 | 1.37 | enough cells to score
Upp1 (GeneID 22271) | 1 | 1.27 | 1.63 | 1.74 | enough cells to score
Map1s (GeneID 270058) | 1 | 2.72 | 1.42 | 1.83 | enough cells to score
Rtl8c (GeneID 72865) | 1 | – | 1.39 | 1.69 | fewer than 50 cells per well; well left out of scoring
Etv6 (GeneID 14011) | 1 | 0.83 | 1.52 | 1.52 | enough cells to score
Fitm1 (GeneID 68680) | 1 | -0.78 | 1.32 | 1.45 | enough cells to score
Rnpep (GeneID 215615) | 1 | 0.46 | 1.53 | 1.63 | enough cells to score
Skor1 (GeneID 207667) | 1 | – | 1.28 | 1.63 | fewer than 50 cells per well; well left out of scoring
Far2 (GeneID 330450) | 1 | 0.13 | 1.78 | 1.63 | enough cells to score
Cyp1a2 (GeneID 13077) | 1 | -0.79 | 1.41 | 1.24 | enough cells to score
Zfp426 (GeneID 235028) | 1 | -0.02 | 1.35 | 1.3 | enough cells to score
Syap1 (GeneID 67043) | 1 | -1.22 | 1.2 | 1.07 | enough cells to score
Calm3 (GeneID 12315) | 1 | -0.55 | 1.58 | 1.33 | enough cells to score
Gabrg3 (GeneID 14407) | 1 | 1.78 | 1.69 | 1.58 | enough cells to score
Gabrg3 (GeneID 14407) | 2 | -0.27 | 1.55 | 1.49 | enough cells to score
Bmyc (GeneID 107771) | 1 | – | 1.08 | 1.35 | fewer than 50 cells per well; well left out of scoring
Pcdha7 (GeneID 12939) | 1 | -0.38 | 1.33 | 1.2 | enough cells to score
Adcy4 (GeneID 104110) | 1 | -0.63 | 1.49 | 1.61 | enough cells to score
Serinc1 (GeneID 56442) | 1 | – | 1.56 | 1.26 | fewer than 50 cells per well; well left out of scoring
Rps12 (GeneID 20042) | 1 | – | 1.3 | 1.23 | fewer than 50 cells per well; well left out of scoring
Smco1 (GeneID 69576) | 1 | -0.71 | 1.25 | 1.24 | enough cells to score
Gmpr2 (GeneID 105446) | 1 | -0.44 | 1.43 | 1.27 | enough cells to score
Nwd1 (GeneID 319555) | 1 | – | 1.13 | 1.57 | fewer than 50 cells per well; well left out of scoring
Zfp202 (GeneID 80902) | 1 | 1.65 | 1.6 | 1.46 | enough cells to score
Igfn1 (GeneID 226438) | 1 | -0.53 | 1.31 | 1.52 | enough cells to score
Slc30a6 (GeneID 210148) | 1 | – | 0 | 1.26 | fewer than 50 cells per well; well left out of scoring
Or4c125 (GeneID 258974) | 1 | -1.07 | 1.56 | 1.37 | enough cells to score
Cish (GeneID 12700) | 1 | -1.54 | 1.28 | 1.18 | enough cells to score
Tead1 (GeneID 21676) | 1 | 1.33 | 1.7 | 1.71 | enough cells to score
Or6c1b (GeneID 258542) | 1 | – | 1.3 | 1.07 | fewer than 50 cells per well; well left out of scoring
Ybx1 (GeneID 22608) | 1 | 0.19 | 1.53 | 1.39 | enough cells to score
Tinag (GeneID 26944) | 1 | -1.15 | 1.16 | 1.12 | enough cells to score
Pde1b (GeneID 18574) | 1 | 0 | 1.46 | 1.32 | enough cells to score
Arpin (GeneID 70420) | 1 | – | 1.52 | 0 | fewer than 50 cells per well; well left out of scoring
Timm10b (GeneID 14356) | 1 | -0.19 | 1.64 | 1.37 | enough cells to score

A stretch from the list above:
target | pool no. | p65 translocation robust z-score | nuclear/cytoplasmic p65 ratio, rep 1 | nuclear/cytoplasmic p65 ratio, rep 2 | low cell count flag
Zfp202 (GeneID 80902) | 1 | 1.65 | 1.6 | 1.46 | enough cells to score
Igfn1 (GeneID 226438) | 1 | -0.53 | 1.31 | 1.52 | enough cells to score
Slc30a6 (GeneID 210148) | 1 | – | 0 | 1.26 | fewer than 50 cells per well; well left out of scoring
